Results deposited as PubChem BioAssay AID1508597 (Cure First, 2020).
Test: 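Knock-downs altering ovarian cancer cell survival with or without PARP inhibitor rucaparib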 (primary screen). Cell system: human ovarian carcinoma lines grown from tumours: OCI-P5x (papillary serous) and OCI-C5x (clear cell). Reagent: siRNA pool against human genes, 1.25 pmol siRNA per well. Duration: 72 h or 96 h, depending on the cell culture. Treatment: rucaparib 20 µM (about IC30) or vehicle, present until read-out. Rucaparib or vehicle: Vehicle. Cell line: OCI-P5x (serous). Read-out: 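Luminescent ATP-based viability assay read 72 or 96 h after transfection, depending on culture, given as normalised percent viability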. Scale: viability, normalised: higher = more viable cells remaining. Rule for the call: 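a well counts as a hit if its normalised viability is under 80 percent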. Calls: active = viability under 80%; inactive = viability 80% or more.
This is a random part of the about 2,100 reagents, in one setting of the screen. 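Calls flag viability under 80% in either arm, not effects specific to rucaparib; the reference for percent is not stated.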 Entries without a mark were called inactive. A reagent listed more than once was tested more than once; the source does not tell the runs apart. No sequences are given here. Not given: the 100% reference.

How did the screen score NR1H3 (nuclear receptor subfamily 1 group H member 3), technical replicate 1?
viability, normalised (%): 59.6 (active)

How did the screen score NR1H3 (nuclear receptor subfamily 1 group H member 3), technical replicate 2?
viability, normalised (%): 89.2

For NR1H3 (nuclear receptor subfamily 1 group H member 3), technical replicate 3, how do the results read?
viability, normalised (%): 83.6

With HNRNPU (heterogeneous nuclear ribonucleoprotein U), technical replicate 1, what does the deposit list?
viability, normalised (%): 69.8 (active)

With HNRNPU (heterogeneous nuclear ribonucleoprotein U), technical replicate 2, what was measured?
viability, normalised (%): 45.9 (active)

How did the screen score HNRNPU (heterogeneous nuclear ribonucleoprotein U), technical replicate 3?
viability, normalised (%): 74.4 (active)

What is on record for SNAI1 (snail family transcriptional repressor 1), technical replicate 1?
viability, normalised (%): 62.7 (active)

With SNAI1 (snail family transcriptional repressor 1), technical replicate 2, how do the results read?
viability, normalised (%): 58.9 (active)

What is on record for SNAI1 (snail family transcriptional repressor 1), technical replicate 3?
viability, normalised (%): 73.2 (active)

What did the screen give for GRK1 (G protein-coupled receptor kinase 1), technical replicate 1?
viability, normalised (%): 75.8 (active)

Which result is listed for GRK1 (G protein-coupled receptor kinase 1), technical replicate 1?
viability, normalised (%): 122

With GRK1 (G protein-coupled receptor kinase 1), technical replicate 1, what was measured?
viability, normalised (%): 72.1 (active)

What is on record for GRK1 (G protein-coupled receptor kinase 1), technical replicate 2?
viability, normalised (%): 92.9

How did the screen score GRK1 (G protein-coupled receptor kinase 1), technical replicate 2?
viability, normalised (%): 78.2 (active)

With GRK1 (G protein-coupled receptor kinase 1), technical replicate 2, how do the results read?
viability, normalised (%): 72.2 (active)

Which result is listed for GRK1 (G protein-coupled receptor kinase 1), technical replicate 3?
viability, normalised (%): 77.4 (active)

Which result is listed for GRK1 (G protein-coupled receptor kinase 1), technical replicate 3?
viability, normalised (%): 81.1

With GRK1 (G protein-coupled receptor kinase 1), technical replicate 3, how do the results read?
viability, normalised (%): 101

What did the screen give for DDX28 (DEAD-box helicase 28), technical replicate 1?
viability, normalised (%): 91.2

What is on record for DDX28 (DEAD-box helicase 28), technical replicate 2?
viability, normalised (%): 80.7

For DDX28 (DEAD-box helicase 28), technical replicate 3, what was measured?
viability, normalised (%): 90.6

Reformatted: 3 of the entries above
{"target gene": "DDX28 (DEAD-box helicase 28)", "technical replicate": "1", "viability, normalised (%)": 91.2}
{"target gene": "DDX28 (DEAD-box helicase 28)", "technical replicate": "2", "viability, normalised (%)": 80.7}
{"target gene": "DDX28 (DEAD-box helicase 28)", "technical replicate": "3", "viability, normalised (%)": 90.6}

The list goes on:
With TREX2 (three prime repair exonuclease 2), technical replicate 1, how do the results read?
viability, normalised (%): 75.7 (active)

For TREX2 (three prime repair exonuclease 2), technical replicate 2, what was measured?
viability, normalised (%): 66.9 (active)

Which result is listed for TREX2 (three prime repair exonuclease 2), technical replicate 3?
viability, normalised (%): 55.5 (active)

Which result is listed for PDE8A (phosphodiesterase 8A), technical replicate 1?
viability, normalised (%): 88.4

With PDE8A (phosphodiesterase 8A), technical replicate 2, how do the results read?
viability, normalised (%): 97.5

What is on record for PDE8A (phosphodiesterase 8A), technical replicate 3?
viability, normalised (%): 117

With POLR1C (RNA polymerase I and III subunit C), technical replicate 1, what was measured?
viability, normalised (%): 136

For POLR1C (RNA polymerase I and III subunit C), technical replicate 2, what was measured?
viability, normalised (%): 120

Which result is listed for POLR1C (RNA polymerase I and III subunit C), technical replicate 3?
viability, normalised (%): 99.6

Which result is listed for TAF10 (TATA-box binding protein associated factor 10), technical replicate 1?
viability, normalised (%): 56.9 (active)

What is on record for TAF10 (TATA-box binding protein associated factor 10), technical replicate 2?
viability, normalised (%): 48.5 (active)

What is on record for TAF10 (TATA-box binding protein associated factor 10), technical replicate 3?
viability, normalised (%): 71.7 (active)
